Reference: PMC10363768
No constants are given. Whether binding was seen depends on the method and setting. For part of these data: Binding can be weak; no strength is given. Where a sequence is shown, tags or fusion partners need not be part of it. For part of these data: In cells and extracts the contact can be indirect.

Experiments:
BK-OsOTUB1.1 (rice) = experiment: two-hybrid; Gal4 system, bait in pGBKT7 and prey in pGADT7 co-transformed into yeast AH109; growth on dropout medium lacking Leu, Trp, His and Ade for 5 days
BK-OsUbc13 (rice) = experiment: as above
OsUEV1B (rice) = experiment: as above
OsOTUB1.1-cYFP (rice) = experiment: split reporter; BiFC; nYFP and cYFP fusions co-expressed in N. benthamiana leaves by Agrobacterium infiltration, 2 days, confocal microscopy (514 nm laser)
OsOTUB1.1-nYFP (rice) = experiment: as above

B1: AD-OsSnRK1a (enzyme, UniProt Q852Q2 1-505)
chain: MEGAGRDGNPLGGYRIGKTLGIGSFGKVKIAEHILTGHKVAIKILNRRKIKSMEMEEKVKREIKILRLFMHPHIIRLYEVIDTPADIYVVMEYVKSGELFDYIVEKGRLQEEEARRFFQQIISGVEYCHRNMVVHRDLKPENLLLDSKCNVKIADFGLSNVMRDGHFLKTSCGSPNYAAPEVISGKLYAGPEVDVWSCGVILYALLCGTLPFDDENIPNLFKKIKGGIYTLPSHLSPLARDLIPRMLVVDPMKRITIREIREHQWFTVGLPRYLAVPPPDTAQQVKKLDDETLNDVINMGFDKNQLIESLHKRLQNEATVAYYLLLDNRLRTTSGYLGAEFHESMESSLAQVTPAETPNSATDHRQHGHMESPGFGLRHHFAADRKWALGLQSRAHPREIITEVLKALQELNVCWKKIGHYNMKCRWSPSFPSHESMMHNNHGFGAESAIIETDDSEKSTHTVKFEIQLYKTRDEKYLLDLQRVSGPQLLFLDLCSAFLTQLRVL
B1 was tested. Which binding (BK-OsOTUB1.1 (rice)) did it give?
Its binding is “binds”.

What about the binding (BK-OsUbc13 (rice)) of the same binder?
Its binding is “binds”.

What about the binding (OsUEV1B (rice)) of the same binder?
Its binding is “binds”.

B2: AD-OsSnRK1a^K43M (enzyme, UniProt Q852Q2 1-505)
chain: MEGAGRDGNPLGGYRIGKTLGIGSFGKVKIAEHILTGHKVAIMILNRRKIKSMEMEEKVKREIKILRLFMHPHIIRLYEVIDTPADIYVVMEYVKSGELFDYIVEKGRLQEEEARRFFQQIISGVEYCHRNMVVHRDLKPENLLLDSKCNVKIADFGLSNVMRDGHFLKTSCGSPNYAAPEVISGKLYAGPEVDVWSCGVILYALLCGTLPFDDENIPNLFKKIKGGIYTLPSHLSPLARDLIPRMLVVDPMKRITIREIREHQWFTVGLPRYLAVPPPDTAQQVKKLDDETLNDVINMGFDKNQLIESLHKRLQNEATVAYYLLLDNRLRTTSGYLGAEFHESMESSLAQVTPAETPNSATDHRQHGHMESPGFGLRHHFAADRKWALGLQSRAHPREIITEVLKALQELNVCWKKIGHYNMKCRWSPSFPSHESMMHNNHGFGAESAIIETDDSEKSTHTVKFEIQLYKTRDEKYLLDLQRVSGPQLLFLDLCSAFLTQLRVL
B2 was tested. Which binding (BK-OsUbc13 (rice)) did it give?
Its binding is “binds”.

B3: OsSnRK1a^K139R (enzyme, UniProt Q852Q2 1-505)
chain: MEGAGRDGNPLGGYRIGKTLGIGSFGKVKIAEHILTGHKVAIKILNRRKIKSMEMEEKVKREIKILRLFMHPHIIRLYEVIDTPADIYVVMEYVKSGELFDYIVEKGRLQEEEARRFFQQIISGVEYCHRNMVVHRDLRPENLLLDSKCNVKIADFGLSNVMRDGHFLKTSCGSPNYAAPEVISGKLYAGPEVDVWSCGVILYALLCGTLPFDDENIPNLFKKIKGGIYTLPSHLSPLARDLIPRMLVVDPMKRITIREIREHQWFTVGLPRYLAVPPPDTAQQVKKLDDETLNDVINMGFDKNQLIESLHKRLQNEATVAYYLLLDNRLRTTSGYLGAEFHESMESSLAQVTPAETPNSATDHRQHGHMESPGFGLRHHFAADRKWALGLQSRAHPREIITEVLKALQELNVCWKKIGHYNMKCRWSPSFPSHESMMHNNHGFGAESAIIETDDSEKSTHTVKFEIQLYKTRDEKYLLDLQRVSGPQLLFLDLCSAFLTQLRVL
With B3 as the binder, how does the binding (BK-OsUbc13 (rice)) read?
The binding was “binds”.

B4: AD-OsSnRK1a^287–505 (domain or fragment, UniProt Q852Q2 287-505)
chain: KLDDETLNDVINMGFDKNQLIESLHKRLQNEATVAYYLLLDNRLRTTSGYLGAEFHESMESSLAQVTPAETPNSATDHRQHGHMESPGFGLRHHFAADRKWALGLQSRAHPREIITEVLKALQELNVCWKKIGHYNMKCRWSPSFPSHESMMHNNHGFGAESAIIETDDSEKSTHTVKFEIQLYKTRDEKYLLDLQRVSGPQLLFLDLCSAFLTQLRVL
With B4 as the binder, how does the binding (BK-OsOTUB1.1 (rice)) read?
Its binding is “binds”.

What about the binding (BK-OsUbc13 (rice)) of the same binder?
The binding was “binds”.

B5: AD-OsSnRK1a^328–505 (domain or fragment, UniProt Q852Q2 328-505)
chain: NRLRTTSGYLGAEFHESMESSLAQVTPAETPNSATDHRQHGHMESPGFGLRHHFAADRKWALGLQSRAHPREIITEVLKALQELNVCWKKIGHYNMKCRWSPSFPSHESMMHNNHGFGAESAIIETDDSEKSTHTVKFEIQLYKTRDEKYLLDLQRVSGPQLLFLDLCSAFLTQLRVL
For B5, which binding (BK-OsOTUB1.1 (rice)) is on record?
The binding was “binds”.

And the binding (BK-OsUbc13 (rice))?
The binding was “binds”.

What does the source list for SEKSTHTVKFEIQLYKTRDEKYLLDLQRVSGPQLLFLDLCSAFLTQLRVL (domain or fragment, UniProt Q852Q2 456-505) [AD-OsSnRK1a^456–505]?
binding (BK-OsOTUB1.1 (rice)): no binding; binding (BK-OsUbc13 (rice)): no binding

B6: AD-OsSnRK1a^1–455 (domain or fragment, UniProt Q852Q2 1-455)
chain: MEGAGRDGNPLGGYRIGKTLGIGSFGKVKIAEHILTGHKVAIKILNRRKIKSMEMEEKVKREIKILRLFMHPHIIRLYEVIDTPADIYVVMEYVKSGELFDYIVEKGRLQEEEARRFFQQIISGVEYCHRNMVVHRDLKPENLLLDSKCNVKIADFGLSNVMRDGHFLKTSCGSPNYAAPEVISGKLYAGPEVDVWSCGVILYALLCGTLPFDDENIPNLFKKIKGGIYTLPSHLSPLARDLIPRMLVVDPMKRITIREIREHQWFTVGLPRYLAVPPPDTAQQVKKLDDETLNDVINMGFDKNQLIESLHKRLQNEATVAYYLLLDNRLRTTSGYLGAEFHESMESSLAQVTPAETPNSATDHRQHGHMESPGFGLRHHFAADRKWALGLQSRAHPREIITEVLKALQELNVCWKKIGHYNMKCRWSPSFPSHESMMHNNHGFGAESAIIETDD
How did the binding (BK-OsOTUB1.1 (rice)) turn out when B6 was run?
The binding was “no binding”.

And the binding (BK-OsUbc13 (rice))?
The binding was “no binding”.

B7: AD-OsSnRK1a^1–327 (domain or fragment, UniProt Q852Q2 1-327)
chain: MEGAGRDGNPLGGYRIGKTLGIGSFGKVKIAEHILTGHKVAIKILNRRKIKSMEMEEKVKREIKILRLFMHPHIIRLYEVIDTPADIYVVMEYVKSGELFDYIVEKGRLQEEEARRFFQQIISGVEYCHRNMVVHRDLKPENLLLDSKCNVKIADFGLSNVMRDGHFLKTSCGSPNYAAPEVISGKLYAGPEVDVWSCGVILYALLCGTLPFDDENIPNLFKKIKGGIYTLPSHLSPLARDLIPRMLVVDPMKRITIREIREHQWFTVGLPRYLAVPPPDTAQQVKKLDDETLNDVINMGFDKNQLIESLHKRLQNEATVAYYLLLD
For B7, which binding (BK-OsOTUB1.1 (rice)) is on record?
The binding was “no binding”.

What about the binding (BK-OsUbc13 (rice)) of the same binder?
The binding was “no binding”.

B8: AD-OsSnRK1a^1–286 (domain or fragment, UniProt Q852Q2 1-286)
chain: MEGAGRDGNPLGGYRIGKTLGIGSFGKVKIAEHILTGHKVAIKILNRRKIKSMEMEEKVKREIKILRLFMHPHIIRLYEVIDTPADIYVVMEYVKSGELFDYIVEKGRLQEEEARRFFQQIISGVEYCHRNMVVHRDLKPENLLLDSKCNVKIADFGLSNVMRDGHFLKTSCGSPNYAAPEVISGKLYAGPEVDVWSCGVILYALLCGTLPFDDENIPNLFKKIKGGIYTLPSHLSPLARDLIPRMLVVDPMKRITIREIREHQWFTVGLPRYLAVPPPDTAQQVK
B8 was tested. Which binding (BK-OsOTUB1.1 (rice)) did it give?
The binding was “no binding”.

And the binding (BK-OsUbc13 (rice))?
Its binding is “no binding”.

B9: OsSnRK1a^1–455-nYFP (domain or fragment, UniProt Q852Q2 1-455)
chain: MEGAGRDGNPLGGYRIGKTLGIGSFGKVKIAEHILTGHKVAIKILNRRKIKSMEMEEKVKREIKILRLFMHPHIIRLYEVIDTPADIYVVMEYVKSGELFDYIVEKGRLQEEEARRFFQQIISGVEYCHRNMVVHRDLKPENLLLDSKCNVKIADFGLSNVMRDGHFLKTSCGSPNYAAPEVISGKLYAGPEVDVWSCGVILYALLCGTLPFDDENIPNLFKKIKGGIYTLPSHLSPLARDLIPRMLVVDPMKRITIREIREHQWFTVGLPRYLAVPPPDTAQQVKKLDDETLNDVINMGFDKNQLIESLHKRLQNEATVAYYLLLDNRLRTTSGYLGAEFHESMESSLAQVTPAETPNSATDHRQHGHMESPGFGLRHHFAADRKWALGLQSRAHPREIITEVLKALQELNVCWKKIGHYNMKCRWSPSFPSHESMMHNNHGFGAESAIIETDD
With B9 as the binder, how does the binding (OsOTUB1.1-cYFP (rice)) read?
Its binding is “no binding”.

B10: OsSnRK1a^1–455-cYFP (domain or fragment, UniProt Q852Q2 1-455)
chain: MEGAGRDGNPLGGYRIGKTLGIGSFGKVKIAEHILTGHKVAIKILNRRKIKSMEMEEKVKREIKILRLFMHPHIIRLYEVIDTPADIYVVMEYVKSGELFDYIVEKGRLQEEEARRFFQQIISGVEYCHRNMVVHRDLKPENLLLDSKCNVKIADFGLSNVMRDGHFLKTSCGSPNYAAPEVISGKLYAGPEVDVWSCGVILYALLCGTLPFDDENIPNLFKKIKGGIYTLPSHLSPLARDLIPRMLVVDPMKRITIREIREHQWFTVGLPRYLAVPPPDTAQQVKKLDDETLNDVINMGFDKNQLIESLHKRLQNEATVAYYLLLDNRLRTTSGYLGAEFHESMESSLAQVTPAETPNSATDHRQHGHMESPGFGLRHHFAADRKWALGLQSRAHPREIITEVLKALQELNVCWKKIGHYNMKCRWSPSFPSHESMMHNNHGFGAESAIIETDD
Which binding (OsOTUB1.1-nYFP (rice)) does the source give for B10 here?
The binding was “no binding”.

B11: AD-OsCPI (protein, UniProt Q6I570 1-184)
chain: MLRRRGFCCCSGAPAAAAAALLLLAVAAAAPRAAGFHLGGDESVLVRGMLAAIRREQAEAEDAARFAVAEYNKNQGAELEFARIVKAKRQVVTGTLHDLMLEVVDSGKKSLYSAKVWVKPWLDFKAVVEFRHVGDSQSQSATAADDNAGQDTADPTVASRNDLHNTENNKVSVVLSTFSQTYSV
With B11 as the binder, how does the binding (BK-OsUbc13 (rice)) read?
The binding was “no binding”.

B12: AD-OsYchF1 (protein, UniProt Q6Z1J6 1-394)
chain: MPPKASKKDAAPAERPILGRFSSHLKIGIVGLPNVGKSTFFNIVTKLSIPAENFPFCTIDPNEARVYVPDERFDWLCQLYKPKSEVSAYLEINDIAGLVRGAHAGEGLGNAFLSHIRAVDGIFHVLRAFEDKEVTHIDDSVDPVRDLETIGEELRLKDIEFVQNKIDDLEKSMKRSNDKQLKLEHELCEKVKAHLEDGKDVRFGDWKSADIEILNTFQLLTAKPVVYLVNMSEKDYQRKKNKFLPKIHAWVQEHGGETIIPFSCAFERLLADMPPDEAAKYCAENQIASVIPKIIKTGFAAIHLIYFFTAGPDEVKCWQIRRQTKAPQAAGTIHTDFERGFICAEVMKFDDLKELGSESAVKAAGKYRQEGKTYVVQDGDIIFFKFNVSGGGKK
Which binding (BK-OsUbc13 (rice)) does the source give for B12 here?
Its binding is “no binding”.
